Laboratory results taken from PubChem BioAssay AID504834 (National Center for Advancing Translational Sciences (NCATS), 2011).
The campaign covered roughly 320,000 compounds. About 22,000 (6.9%) were called active. Inconclusive means that the source gave no clear call. Such entries were picked first, then a sample of the others. Calls follow the shape of the dose curve; as a rule, active = well fitted inhibition curve with a large enough effect; inconclusive = small, poorly fitted or top-dose-only effect, or another doubt; inactive = no such curve, though single readings can be large or run the other way. Potencies beside an inconclusive call are fits to weak or partial responses and may not hold up.

Assay: Primary qHTS for delayed death inhibitors of the malarial parasite plastid, 96 hour incubation
Settings: P. falciparum luciferase reporter growth; series mostly up to 28.7 µM
Outline: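 Cell-based qHTS: luciferase-tagged P. falciparum in erythrocytes (2% hematocrit, 0.05% parasitemia final) incubated with compounds for 96 hours, 37 C, 5% CO2; luciferase detection reagent then added and luminescence measured.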
% is scaled to controls: 0 for no effect and ±100 for the full control effect; potency is read from the fitted curve at half-maximal effect.

Row | SMILES | Potency | activity change, negative = inhibition
1 | COc1ccc(S(=O)(=O)N2CCOCC2)cc1NC(=O)CC1CC2CCC1C2 (centres undefined) | inconclusive: 16.5 µM [inhibitor, single point] | 
2 | O=C(NCc1ccco1)c1ccc(Cn2c(=S)[nH]c3ccccc3c2=O)cc1 | inconclusive: 18.5 µM [inhibitor, single point] | 
3 | COc1ccc(NC(=S)NC(NC(=O)CF)C(Cl)(Cl)Cl)cc1[N+](=O)[O-] (centres undefined) | inconclusive: 2.62 µM [inhibitor, full curve, poor fit] | 
4 | CCCN(CCC)S(=O)(=O)c1ccc(NC(=O)Cc2cccs2)cc1 | inconclusive: 18.5 µM [inhibitor, single point] | 
5 | CCOC(=O)CCc1c(C)nc2cc(C3CCCN(C(=O)OC(C)(C)C)C3)[nH]n2c1=O (centres undefined) | inconclusive: 9.28 µM [inhibitor, partial curve, poor fit] | 
6 | Cc1nccc(-c2cccc(N/N=C(\C#N)C(=O)c3ccccc3)c2)n1 | active: 5.22 µM | 
7 | O=C(CSc1ccccc1)Nc1ccccc1C(=O)O | inactive | 
8 | COc1cc2cc(C(=O)N3CCN(Cc4ccc5c(c4)OCO5)CC3)[nH]c2cc1OC | inconclusive: 8.28 µM [inhibitor, partial curve] | 
9 | CC(=O)N(Cc1ccco1)Cc1cc2cccc(C)c2n2nnnc12 | inconclusive: 18.5 µM [inhibitor, single point] | 
10 | CCCCNC(=O)N1CCc2ccccc2C1 | inactive | 
11 | Cc1cccc(C)c1NS(=O)(=O)c1ccc(F)cc1 |  | inactive: 0.425% [at 5.75 µM]
12 | C=CCN1C(=O)C(Cc2ccc(C)cc2)S/C1=N/N=C/c1ccco1 (centres undefined) | inconclusive: 18.5 µM [inhibitor, single point] | 
13 | CN(C)CCCN(C(=O)c1cccs1)c1nc(-c2ccccc2)cs1 | inconclusive: 11.7 µM [inhibitor, single point] | 
14 | Cc1nc2ccccc2c(=O)n1-c1ccc(F)c(NS(=O)(=O)c2ccccc2F)c1 | inconclusive: 1.65 µM [inhibitor, partial curve, poor fit] | 
15 | COc1ccc(-n2cnnc2SCc2csc(-c3ccccc3)n2)cc1 | inconclusive: 16.5 µM [inhibitor, single point] | 
16 | CSCC[C@H](N)C(=O)NCC1CCC(C(=O)Nc2ccc3c(c2)OCO3)CC1 (some centres undefined) | inconclusive: 0.415 µM [inhibitor, full curve, poor fit] | 
17 | COC(=O)c1cccc(NC(=O)CCSc2ccc(Cl)cc2)c1C | inconclusive: 18.5 µM [inhibitor, single point] | 
18 | CC(OC(=O)c1snc(C(=O)NC2CCCCC2)c1N)C(=O)NC1CCCCC1 (centres undefined) | inconclusive: 10.4 µM [inhibitor, single point] | 
19 | COc1ccc(C(=O)N=c2nc3ccccn3s2)cc1 | inactive | 
20 | CSc1nc(SCC(N)=O)c2c3c(sc2n1)CN(C)CC3 | active: 0.586 µM | 
21 | Cc1cc(C)n2nc(C(=O)OCC(=O)c3cc(C)n(C)c3C)nc2n1 | inconclusive: 18.5 µM [inhibitor, single point] | 
22 | CC(C)Cn1c(=O)c2ccccc2n2c(CCC(=O)NCC3CCCO3)nnc12 (centres undefined) | inactive | 
23 | CCOCCCNC(=O)c1cc(-c2ccc(Br)s2)nc2ccccc12 | active: 10.4 µM | 

Some of the entries above, reformatted:

| Row | SMILES | Potency | activity change, negative = inhibition |
| --- | --- | --- | --- |
| 6 | Cc1nccc(-c2cccc(N/N=C(\C#N)C(=O)c3ccccc3)c2)n1 | active: 5.22 µM |  |
| 10 | CCCCNC(=O)N1CCc2ccccc2C1 | inactive |  |

(more compounds)

Row | SMILES | Potency | activity change, negative = inhibition
24 | O=C(NC(=S)NC1CCN(Cc2ccccc2)CC1)c1ccc(F)cc1 | inconclusive: 9.28 µM [inhibitor, partial curve, poor fit] | 
25 | Cc1cc(C)nc(/N=C(\N)Nc2ccc(CC(=O)OC(C)C)cc2)n1 | inconclusive: 11.7 µM [inhibitor, single point] | 
26 | CCOc1ccc(S(=O)(=O)N(C)CC(=O)NC2CC2)cc1 | inactive | 
27 | O=C(Cn1cc([N+](=O)[O-])cn1)N1CCN(Cc2ccc3c(c2)OCO3)CC1 | inactive | 
28 | COCCCn1c(SCC(=O)Nc2ccc(C(=O)OC)cc2)nc2ccccc2c1=O | inconclusive: 1.04 µM [inhibitor, partial curve, poor fit] | 
29 | COC(=O)c1ccc(Cn2cnc3ccccc3c2=O)cc1 | inconclusive: 18.5 µM [inhibitor, single point] | 
30 | CCc1ccc(N(C(=O)CNC(=O)c2ccco2)C(C(=O)NC2CCCC2)c2ccncc2)cc1 (centres undefined) | inactive | 
31 | O=C1CCN(Cc2ccccc2)CCN1CCO | inconclusive: 18.5 µM [inhibitor, single point] | 
32 | O=C(CSc1nnc(NC(=O)CN2CCOCC2)s1)Nc1ccccc1 | inconclusive: 16.5 µM [inhibitor, single point] | 
33 | COC(=O)c1ccccc1NC(=O)CN(c1c(C)cccc1C)S(C)(=O)=O | inconclusive: 4.15 µM [inhibitor, single point] | 
34 | COc1ccc(CCNC2CCCCC2)cc1 | inconclusive: 6.57 µM [inhibitor, partial curve] | 
35 | COc1cccc(/C(C)=N/NC(=O)Cc2c(C)[nH][nH]c2=O)c1 | inactive | 
36 | CCOC(=O)C1=C(C)Nc2ccccc2N=C1NC(=O)c1ccc(Cl)c(S(=O)(=O)N2CCCC2)c1 | inconclusive: 14.7 µM [inhibitor, single point] | 
37 | CCn1nnnc1SCC(=O)N1CCCCC1 | inactive | 
38 | CCC(C)C(=O)Nc1nc2ccc(S(C)(=O)=O)cc2s1 (centres undefined) | inconclusive: 14.7 µM [inhibitor, single point] | 
39 | COc1ccc2c3n(nc2c1)CCN=C3c1ccc(C)cc1 | inconclusive: 18.5 µM [inhibitor, single point] | 
40 | CCCCn1nnc(NC(=S)NC(=O)c2ccc(OCC)c([N+](=O)[O-])c2)n1 | inactive | 
41 | CCOC(=O)Cc1csc(NC(=O)Nc2cccc(Cl)c2)n1 | inactive | 
42 | COc1ccccc1/C=C1\SC(=S)N(CCC(=O)NCCCN2CCOCC2)C1=O | inconclusive: 13.1 µM [inhibitor, single point] | 
43 | CCC(=O)Nc1sc2c(c1C#N)CC(C)(CC)OC2 (centres undefined) | inconclusive: 0.0738 µM [inhibitor, full curve, poor fit] | 
44 | CC(=O)NNC(=S)NC(=O)c1ccc(C)cc1 | inconclusive: 11.7 µM [inhibitor, single point] | 
45 | COc1cc2c(cc1OC)[C@H](C)N(C(=O)CSc1nc(O)c(C(C)C)c(=O)[nH]1)CC2 | inconclusive: 18.5 µM [inhibitor, single point] | 
46 | S=C(c1ccc(-c2ccc(Cl)cc2Cl)o1)N1CCCCC1 | inactive | 

Row | SMILES | Potency | activity change, negative = inhibition
47 | COc1ccc(C(=O)CSc2nc(-c3ccccn3)nc(C)c2Cl)cc1 | inconclusive: 1.04 µM [inhibitor, full curve, poor fit] | 
48 | CC1(C)CC(=O)C(C=NCCN2CCN(C(=O)Cc3ccccc3)CC2)=C(O)C1 | inconclusive: 0.37 µM [inhibitor, full curve, poor fit] | 
49 | O=C1C(=O)N(c2nccs2)C(c2ccccc2F)/C1=C(\O)c1ccc2c(c1)OCCO2 (centres undefined) | inactive | 
50 | CCOCCCNC(=S)N1C2CCC1CC(NC(=O)Nc1ccc(C(=O)OCC)cc1)C2 (centres undefined) | inconclusive: 9.28 µM [inhibitor, partial curve] | 
51 | CCOC(=O)Cn1c(=O)oc2cc(S(=O)(=O)NC3CCCc4ccccc43)ccc21 (centres undefined) | inconclusive: 7.38 µM [inhibitor, partial curve] | 
52 | Fc1ccc(C2c3cccn3CCN2C(=S)Nc2cccc(Br)c2)cc1 (centres undefined) | inconclusive: 4.65 µM [inhibitor, partial curve, poor fit] | 
53 | CC(Sc1nnc(Cc2cccs2)n1C1CCCCC1)C(=O)NCc1ccco1 (centres undefined) | inconclusive: 18.5 µM [inhibitor, single point] | 
54 | NC1=NC2(CCC(c3ccccc3)CC2)n2c(nc3ccccc32)N1 (centres undefined) | inconclusive: 4.15 µM [inhibitor, full curve, poor fit] | 
55 | CC(CCc1ccccc1)NC(=O)c1ccc(Cl)nc1 (centres undefined) | inactive | 
56 | O=C(CN1CCOCC1)N1CCN(c2ccc([N+](=O)[O-])cc2)CC1 | inconclusive: 4.15 µM [inhibitor, single point] | 
57 | CNc1oc(/C=C/c2cccc(OC)c2)nc1C#N | inactive | 
58 | COc1ccc(/C(C)=N/NC(=O)c2nnn(-c3nonc3N)c2-c2ccccc2)cc1 | inactive | 
59 | O=C(c1ccc(-c2ccccc2Cl)o1)N1CCN(c2ccccc2O)CC1 | inconclusive: 14.7 µM [inhibitor, single point] | 
60 | COc1ccc(OCCOCCN2CCc3ccccc3C2)cc1 | inconclusive: 18.5 µM [inhibitor, single point] | 
61 | CCOc1ccc(S(=O)(=O)N2CCOCC2)cc1NC(=O)c1ccc(N2CCCC2=O)cc1 | inconclusive: 1.47 µM [inhibitor, full curve, poor fit] | 
62 | Cc1cc(C(=O)N(C)CC2CCCN(CCc3ccc(F)cc3)C2)c(C)o1 (centres undefined) | inconclusive: 14.7 µM [inhibitor, partial curve, poor fit] | 
63 | CCOC(=O)c1c(NC(=S)NC(=O)c2ccc(Cn3cc(Cl)cn3)o2)sc2c1CCC(C)C2 (centres undefined) | inactive | 
64 | CCCOc1ccc(CSC(CC(=O)O)C(=O)O)cc1 (centres undefined) | inconclusive: 10.4 µM [inhibitor, single point] | 
65 | O=[N+]([O-])c1ccccc1/C=N\N1CCN(Cc2ccccc2Cl)CC1 | inactive | 
66 | O=C(CSc1nnc(CCCN2C(=O)c3cccc4cccc(c34)C2=O)n1-c1ccccc1)N1CCCCC1 | inconclusive: 18.5 µM [inhibitor, single point] | 
67 | COc1ccc(CCNC(=O)CSc2nnc(CNC(=O)c3cc(OC)c(OC)c(OC)c3)o2)cc1OC | inactive | 
68 | O=C(CC1C(=O)NCCN1C(=O)c1ccc(Cl)cc1)Nc1ccc(F)cc1 (centres undefined) | inconclusive: 3.7 µM [inhibitor, single point] | 
69 | COc1ccc(C2C=C(c3ccccc3)Nc3nc(CCCO)nn32)cc1 (centres undefined) | inconclusive: 18.5 µM [inhibitor, single point] | 
